Data reported in publication PMC8129794.
Where two headings read alike, the source gives them in different places. Results are given in words; binding and its absence hold for the method and conditions named. Binding seen in cells or lysates may run through a third protein. Here binding means that the protein was enriched with, or labelled near, the bait; the list need not be complete. Where a sequence is shown, tags or fusion partners need not be part of it.

Sequences of proteins named here, by UniProt entry; tags and fusion partners are left off.
UniProt Q93034: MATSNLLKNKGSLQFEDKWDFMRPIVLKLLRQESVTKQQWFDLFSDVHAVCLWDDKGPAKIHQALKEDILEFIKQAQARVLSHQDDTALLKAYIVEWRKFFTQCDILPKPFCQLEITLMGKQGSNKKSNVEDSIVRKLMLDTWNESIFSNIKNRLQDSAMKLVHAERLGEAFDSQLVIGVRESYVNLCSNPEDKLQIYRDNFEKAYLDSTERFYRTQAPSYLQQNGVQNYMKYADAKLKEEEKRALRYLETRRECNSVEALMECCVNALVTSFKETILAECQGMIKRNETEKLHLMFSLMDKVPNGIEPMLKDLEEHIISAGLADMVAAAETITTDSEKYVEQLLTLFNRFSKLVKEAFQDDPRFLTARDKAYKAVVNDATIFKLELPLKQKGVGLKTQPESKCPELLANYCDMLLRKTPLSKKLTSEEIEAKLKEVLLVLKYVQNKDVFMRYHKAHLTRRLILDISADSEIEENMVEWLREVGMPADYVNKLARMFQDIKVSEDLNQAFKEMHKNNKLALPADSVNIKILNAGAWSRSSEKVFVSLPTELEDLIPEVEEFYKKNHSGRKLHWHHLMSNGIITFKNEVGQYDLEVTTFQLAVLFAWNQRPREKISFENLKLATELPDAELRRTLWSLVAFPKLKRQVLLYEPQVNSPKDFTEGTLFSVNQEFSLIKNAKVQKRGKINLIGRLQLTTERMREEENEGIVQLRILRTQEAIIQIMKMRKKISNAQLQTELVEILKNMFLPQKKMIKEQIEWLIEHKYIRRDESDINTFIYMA
UniProt O60610: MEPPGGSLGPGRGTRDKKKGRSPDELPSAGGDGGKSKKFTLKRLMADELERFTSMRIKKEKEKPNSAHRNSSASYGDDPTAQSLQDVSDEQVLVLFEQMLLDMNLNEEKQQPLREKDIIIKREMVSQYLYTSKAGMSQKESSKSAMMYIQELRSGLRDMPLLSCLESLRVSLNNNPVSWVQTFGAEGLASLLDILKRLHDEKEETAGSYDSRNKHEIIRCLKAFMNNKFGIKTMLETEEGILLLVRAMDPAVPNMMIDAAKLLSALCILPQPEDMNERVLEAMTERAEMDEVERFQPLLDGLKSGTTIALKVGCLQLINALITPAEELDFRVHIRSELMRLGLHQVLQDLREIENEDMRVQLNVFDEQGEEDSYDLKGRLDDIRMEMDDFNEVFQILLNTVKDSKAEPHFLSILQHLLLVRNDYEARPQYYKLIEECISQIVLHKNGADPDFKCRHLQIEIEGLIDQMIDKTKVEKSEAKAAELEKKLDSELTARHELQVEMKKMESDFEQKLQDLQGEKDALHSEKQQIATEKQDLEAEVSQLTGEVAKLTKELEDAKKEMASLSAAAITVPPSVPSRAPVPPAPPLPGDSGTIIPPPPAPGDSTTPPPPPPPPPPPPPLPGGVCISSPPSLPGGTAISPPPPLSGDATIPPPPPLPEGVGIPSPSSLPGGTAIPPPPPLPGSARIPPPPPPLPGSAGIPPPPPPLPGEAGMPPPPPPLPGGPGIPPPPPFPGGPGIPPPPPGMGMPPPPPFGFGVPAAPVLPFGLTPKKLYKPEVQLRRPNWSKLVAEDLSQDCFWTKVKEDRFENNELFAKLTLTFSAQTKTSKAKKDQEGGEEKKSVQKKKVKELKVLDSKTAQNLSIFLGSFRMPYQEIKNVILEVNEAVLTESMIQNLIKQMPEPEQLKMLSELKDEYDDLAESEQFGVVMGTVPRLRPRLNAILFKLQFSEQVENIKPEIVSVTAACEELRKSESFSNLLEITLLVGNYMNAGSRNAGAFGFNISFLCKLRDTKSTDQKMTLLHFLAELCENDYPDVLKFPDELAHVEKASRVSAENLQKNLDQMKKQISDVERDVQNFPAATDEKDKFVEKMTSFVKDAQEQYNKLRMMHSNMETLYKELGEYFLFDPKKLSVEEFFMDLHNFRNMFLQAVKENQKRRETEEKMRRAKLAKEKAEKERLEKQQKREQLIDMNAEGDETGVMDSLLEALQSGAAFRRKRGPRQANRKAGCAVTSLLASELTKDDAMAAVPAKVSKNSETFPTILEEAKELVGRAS
UniProt Q9UHB6: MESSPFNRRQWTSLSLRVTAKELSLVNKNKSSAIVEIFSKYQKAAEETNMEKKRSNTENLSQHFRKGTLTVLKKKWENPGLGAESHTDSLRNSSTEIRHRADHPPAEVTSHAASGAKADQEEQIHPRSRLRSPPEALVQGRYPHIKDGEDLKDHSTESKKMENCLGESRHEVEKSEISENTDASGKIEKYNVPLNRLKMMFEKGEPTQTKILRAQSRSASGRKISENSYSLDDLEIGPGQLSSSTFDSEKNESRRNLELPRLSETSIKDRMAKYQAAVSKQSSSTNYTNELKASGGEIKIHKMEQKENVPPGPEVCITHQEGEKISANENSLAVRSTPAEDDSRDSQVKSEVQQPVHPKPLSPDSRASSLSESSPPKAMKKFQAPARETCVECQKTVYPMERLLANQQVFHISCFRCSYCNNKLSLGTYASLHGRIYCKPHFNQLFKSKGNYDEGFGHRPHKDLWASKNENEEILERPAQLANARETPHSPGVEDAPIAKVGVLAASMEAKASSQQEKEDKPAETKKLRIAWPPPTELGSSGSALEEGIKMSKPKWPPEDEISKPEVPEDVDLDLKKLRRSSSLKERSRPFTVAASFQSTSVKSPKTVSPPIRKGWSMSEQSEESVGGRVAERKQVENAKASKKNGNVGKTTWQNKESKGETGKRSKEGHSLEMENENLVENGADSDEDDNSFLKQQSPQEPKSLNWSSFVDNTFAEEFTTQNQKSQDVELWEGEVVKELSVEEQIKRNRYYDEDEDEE
UniProt Q15370: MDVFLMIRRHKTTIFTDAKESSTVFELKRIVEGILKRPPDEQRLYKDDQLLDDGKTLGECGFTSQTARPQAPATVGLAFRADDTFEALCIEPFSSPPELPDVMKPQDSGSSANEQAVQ
UniProt Q9UBF6: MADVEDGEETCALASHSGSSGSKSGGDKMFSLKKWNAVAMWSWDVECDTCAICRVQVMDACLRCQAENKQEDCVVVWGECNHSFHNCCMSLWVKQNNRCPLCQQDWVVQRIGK

Columns and labels:
FLAG-Rab40b [1] = biological target: T1, FLAG-Rab40b (UniProt Q12829); experiment: affinity purification with mass spectrometry; anti-FLAG antibody beads (control IgG beads) on Triton X-100 lysate of MDA-MB-231 stably expressing FLAG-Rab40b, in the presence of GDP or GTPgammaS; PBS, 1% Triton X-100
T1 sequence: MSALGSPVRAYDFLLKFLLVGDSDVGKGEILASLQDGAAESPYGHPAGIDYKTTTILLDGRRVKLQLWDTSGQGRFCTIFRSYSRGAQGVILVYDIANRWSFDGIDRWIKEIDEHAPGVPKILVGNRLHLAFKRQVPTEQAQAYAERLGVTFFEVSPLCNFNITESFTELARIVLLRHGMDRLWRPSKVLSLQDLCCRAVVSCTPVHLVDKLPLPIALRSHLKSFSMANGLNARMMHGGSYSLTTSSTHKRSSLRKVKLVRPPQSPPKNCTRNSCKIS

FLAG-Rab40b [2] = biological target: T1, FLAG-Rab40b; experiment: affinity purification with mass spectrometry; FLAG beads on lysates of MDA-MB-231 expressing WT FLAG-Rab40b or FLAG-Rab40b-4A; two independent experiments; hits over IgG control
FLAG-Rab40b-4A [3] = biological target: T2, FLAG-Rab40b-4A (UniProt Q12829); experiment: as above
T2 sequence: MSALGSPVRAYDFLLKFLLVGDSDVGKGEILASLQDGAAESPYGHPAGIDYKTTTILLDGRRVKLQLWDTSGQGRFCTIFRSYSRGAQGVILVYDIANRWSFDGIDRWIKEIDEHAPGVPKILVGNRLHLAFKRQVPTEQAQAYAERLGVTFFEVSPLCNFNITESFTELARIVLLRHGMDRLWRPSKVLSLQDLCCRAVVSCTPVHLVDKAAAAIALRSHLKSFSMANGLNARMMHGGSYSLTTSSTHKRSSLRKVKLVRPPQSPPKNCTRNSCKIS

FLAG-Rab40b-4A [4] = biological target: T2, FLAG-Rab40b-4A; experiment: as above; remark: listed apart in the source

Cullin5 (from UniProt Q93034 1-780)
binding (FLAG-Rab40b [1]): binds
binding (FLAG-Rab40b [2]): binds

DIAPH1 (from UniProt O60610 1-1272)
binding (FLAG-Rab40b-4A [3]): binds

EPLIN (epithelial protein lost in neoplasia) (from UniProt Q9UHB6 1-759)
binding (FLAG-Rab40b-4A [3]): binds

Elongin B (from UniProt Q15370 1-118)
binding (FLAG-Rab40b [1]): binds
binding (FLAG-Rab40b [2]): binds

Rbx2 (from UniProt Q9UBF6 1-113)
binding (FLAG-Rab40b [2]): binds

B1: ARHGAP42 (protein, UniProt A6NI28 1-874)
chain: MGLPTLEFSDSYLDSPDFRERLQCHEIELERTNKFIKELIKDGSLLIGALRNLSMAVQKFSQSLQDFQFECIGDAETDDEISIAQSLKEFARLLIAVEEERRRLIQNANDVLIAPLEKFRKEQIGAAKDGKKKFDKESEKYYSILEKHLNLSAKKKESHLQEADTQIDREHQNFYEASLEYVFKIQEVQEKKKFEFVEPLLSFLQGLFTFYHEGYELAQEFAPYKQQLQFNLQNTRNNFESTRQEVERLMQRMKSANQDYRPPSQWTMEGYLYVQEKRPLGFTWIKHYCTYDKGSKTFTMSVSEMKSSGKMNGLVTSSPEMFKLKSCIRRKTDSIDKRFCFDIEVVERHGIITLQAFSEANRKLWLEAMDGKEPIYTLPAIISKKEEMYLNEAGFNFVRKCIQAVETRGITILGLYRIGGVNSKVQKLMNTTFSPKSPPDIDIDIELWDNKTITSGLKNYLRCLAEPLMTYKLHKDFIIAVKSDDQNYRVEAVHALVHKLPEKNREMLDILIKHLVKVSLHSQQNLMTVSNLGVIFGPTLMRAQEETVAAMMNIKFQNIVVEILIEHYEKIFHTAPDPSIPLPQPQSRSGSRRTRAICLSTGSRKPRGRYTPCLAEPDSDSYSSSPDSTPMGSIESLSSHSSEQNSTTKSASCQPREKSGGIPWIATPSSSNGQKSLGLWTTSPESSSREDATKTDAESDCQSVASVTSPGDVSPPIDLVKKEPYGLSGLKRASASSLRSISAAEGNKSYSGSIQSLTSVGSKETPKASPNPDLPPKMCRRLRLDTASSNGYQRPGSVVAAKAQLFENVGSPKPVSSGRQAKAMYSCKAEHSHELSFPQGAIFSNVYPSVEPGWLKATYEGKTGLVPENYVVFL
binding (FLAG-Rab40b-4A [4]): binds

B2: ARHGAP19 (protein, UniProt Q14CB8 1-494)
chain: MATEAQSEGEVPARESGRSDAICSFVICNDSSLRGQPIIFNPDFFVEKLRHEKPEIFTELVVSNITRLIDLPGTELAQLMGEVDLKLPGGAGPASGFFRSLMSLKRKEKGVIFGSPLTEEGIAQIYQLIEYLHKNLRVEGLFRVPGNSVRQQILRDALNNGTDIDLESGEFHSNDVATLLKMFLGELPEPLLTHKHFNAHLKIADLMQFDDKGNKTNIPDKDRQIEALQLLFLILPPPNRNLLKLLLDLLYQTAKKQDKNKMSAYNLALMFAPHVLWPKNVTANDLQENITKLNSGMAFMIKHSQKLFKAPAYIRECARLHYLGSRTQASKDDLDLIASCHTKSFQLAKSQKRNRVDSCPHQEETQHHTEEALRELFQHVHDMPESAKKKQLIRQFNKQSLTQTPGREPSTSQVQKRARSRSFSGLIKRKVLGNQMMSEKKKKNPTPESVAIGELKGTSKENRNLLFSGSPAVTMTPTRLKWSEGKKEGKKGFL
binding (FLAG-Rab40b-4A [4]): binds
